Where a name gives a salt, the structure may show the parent alone. Read-outs that look alike come from different tables or passages of the source. Out of some 3,300 compounds screened, about 60 (2%) showed an effect of 50% or more. Some of the results follow. Bridge positions count the residues as written; N and C are the ends. Square brackets hold non-standard residues; d marks the D form. Peptide text beside a SMILES is read from it. * marks the point of attachment. NMePhe(4-NMe2) = CN[C@@H](Cc1ccc(N(C)C)cc1)C(=O)O; Pip(4-oxo) = O=C1CCN[C@H](C(=O)O)C1; Picolinoyl(3-OH) = O=C(c1ncccc1O)*; Phg = N[C@H](C(=O)O)c1ccccc1; dAbu = CC[C@@H](N)C(=O)O
System: HCoV-OC43
Parameters: species or system RD; HTS, protection from HCoV-OC43 induced cell death, luminescent cell viability (CellCounting-Lite 2.0), inhibition rate
Settings: 24 h post infection, 1 h compound pre-incubation, 10 µM, inhibitor

SMILES	OC43 Inhibition rate [%]	OC43 Inhibition rate (OC43 Inhibition rate, 24 h) [%]
Cc1ccccc1C(=O)O [o-Toluic acid]	0.4	
COc1cc2oc(-c3ccccc3)cc(=O)c2c(O)c1OC [Mosloflavone]	5.1	
C[C@@H]1O[C@@H](O[C@H]2[C@H](OC(=O)[C@]34CCC(C)(C)C[C@H]3C3=CC[C@@H]5[C@@]6(C)C[C@H](O)[C@H](O[C@@H]7O[C@H](CO)[C@@H](O)[C@H](O)[C@H]7O)[C@@](C)(CO)[C@@H]6CC[C@@]5(C)[C@]3(C)C[C@H]4O)OC[C@H](O)[C@@H]2O)[C@H](O)[C@H](O)[C@H]1O[C@@H]1OC[C@@H](O)[C@H](O[C@@H]2OC[C@](O)(CO)[C@H]2O)[C@H]1O [Polygalacin D]	36.7	
CC(=O)N[C@@H](CS)C(=O)O [Acetylcysteine]	-0.2	
C=C[C@@H]1C2=CCOC(=O)C2=CO[C@H]1O[C@@H]1O[C@H](CO[C@@H]2O[C@H](CO)[C@@H](O)[C@H](O)[C@H]2O)[C@@H](O)[C@H](O)[C@H]1O [6'-O-beta-D-Glucosylgentiopicroside]	-1.2	
COc1ccc(C)cc1 [4-Methylanisole]	-0.2	
O=C1CCC[C@@H]2[C@H]3CCC[N+]4([O-])CCC[C@@H](CN12)[C@@H]34 (stereo partly drawn) [Oxymatrine]	-0.6	
OC[C@H]1OC[C@H](O)[C@@H](O)[C@@H]1O [1,5-Anhydrosorbitol]	0.3	
CC(C)C[C@H](N)C(=O)N[C@@H](C)C(=O)O [L-Leucyl-L-alanine] (H-Leu-Ala-OH)	-3.3	
COc1ccc2c3c1O[C@H]1C[C@@H](O)C=C[C@@]31CCN(C)C2 [Galanthamine (hydrobromide)]		0.7
O=c1c(O[C@@H]2OC[C@H](O)[C@H](O)[C@H]2O)c(-c2ccc(O)c(O)c2)oc2cc(O)cc(O)c12 [Guaijaverin]	0.3	
CCO[C@H]1O[C@@H]2O[C@@]3(C)CC[C@H]4[C@H](C)CC[C@@H]([C@H]1C)[C@@]24OO3 [Artemotil]	-3	
CC[C@H](C)C(=O)O[C@H]1C[C@@H](C)C=C2C=C[C@H](C)[C@H](CC[C@@H]3C[C@@H](O)CC(=O)O3)[C@H]21 [Lovastatin]	5.2	
C=CC(C)(CCC=C(C)C)OC(C)=O (stereo not drawn) [Linalyl acetate]	0.2	
CC(C)CCC1(O)O[C@H]2[C@H](O)[C@H]3[C@@H]4CC[C@@H]5C[C@@H](O[C@@H]6O[C@H](CO)[C@H](O)[C@H](O)[C@H]6O[C@@H]6O[C@H](CO)[C@@H](O)[C@H](O)[C@H]6O)CC[C@]5(C)[C@H]4CC[C@]3(C)[C@H]2[C@@H]1C (stereo partly drawn) [Anemarrhenasaponin I]	-0.4	
COC(=O)c1ccccc1C(=O)OC [Dimethyl phthalate]	0.5	
CC[C@H]1NC(=O)[C@@H](NC(=O)c2ncccc2O)[C@@H](C)OC(=O)[C@H](c2ccccc2)NC(=O)[C@@H]2CC(=O)CCN2C(=O)[C@H](Cc2ccc(N(C)C)cc2)N(C)C(=O)[C@@H]2CCCN2C1=O [Pristinamycin IA] ({Picolinoyl(3-OH)}-T[dAbu]P[NMePhe(4-NMe2)][Pip(4-oxo)][Phg]; ester 1-C)	1.7	
C[C@H](CC[C@@H](O[C@@H]1O[C@H](CO[C@@H]2O[C@H](CO)[C@@H](O)[C@H](O)[C@H]2O)[C@@H](O)[C@H](O)[C@H]1O)C(C)(C)O)[C@H]1CC[C@@]2(C)[C@@H]3CC=C4[C@@H](CC[C@H](O[C@@H]5O[C@H](CO[C@@H]6O[C@H](CO)[C@@H](O)[C@H](O)[C@H]6O)[C@@H](O)[C@H](O)[C@H]5O)C4(C)C)[C@]3(C)[C@H](O)C[C@]12C [Mogroside IV-A]	-0.2	
C=C(C)[C@@H]1CC=C(/C=N/O)CC1 [Perillartine]	5.5	
CCn1cnc2c(N)ncnc21 [9-Ethyladenine]	-1	
Oc1nc(O)c2cn[nH]c2n1 [Oxypurinol]	-0.3	
N[C@H](C(=O)O)[C@@H]1CC(Cl)=NO1 [Acivicin (hydrochloride)]	61.6	
C[C@@H]1CC[C@]2(C(=O)O[C@@H]3O[C@H](CO)[C@@H](O)[C@H](O)[C@H]3O)CC[C@]3(C)C(=CC[C@@H]4[C@@]5(C)C[C@@H](O)[C@H](O)[C@@](C)(CO)[C@@H]5CC[C@]43C)[C@@H]2[C@]1(C)O [Niga-ichigoside F1]	-0.1	
N[C@H]1C(O)O[C@H](CO)[C@@H](O)[C@@H]1O (stereo partly drawn) [Glucosamine]		-0.3
C[C@H](CC(=O)C[C@@H](C)[C@H]1C[C@H](O)[C@@]2(C)C3=C(C(=O)C[C@]12C)[C@@]1(C)CCC(=O)C(C)(C)[C@@H]1C[C@@H]3O)C(=O)O [Ganoderic acid A]	1.1	
CC1=C[C@H]2c3c(O)cc(-c4cc5ccc(O)cc5o4)cc3O[C@@]3(c4ccc(O)cc4O)Oc4cc(O)ccc4[C@H](C1)[C@@H]23 [Mulberrofuran G]	0.3	
O=C1OCc2ccccc21 [Phthalide]	-0.1	

SMILES	OC43 Inhibition rate [%]	OC43 Inhibition rate (OC43 Inhibition rate, 24 h) [%]
O=c1ccn([C@@H]2O[C@H](CO)[C@@H](O)[C@H]2O)c(=O)[nH]1 [Uridine]	-0.2	
O=C(O)Cc1cc(O)ccc1O[C@@H]1O[C@H](CO)[C@@H](O)[C@H](O)[C@H]1O [Phaseoloidin]	-1.3	
O=C(O)c1cc(O)c2c(c1)[C@H]([C@H]1c3cccc(O)c3C(=O)c3c(O)cc(C(=O)O)cc31)c1cccc(O)c1C2=O [Sennidin B]	8.5	
CC(=O)O[C@H]([C@@H](O)C[C@@H](C)C1=C2C[C@H](O)[C@H]3[C@@]4(C)CCC(=O)C(C)(C)[C@@H]4CC[C@]3(C)[C@@]2(C)CC1)C(C)(C)O [Alisol A 24-acetate]	-1.3	
O=C(O)c1ccncc1 [Isonicotinic acid]	-0.2	
O=CCc1ccccc1 [2-Phenylacetaldehyde]	-1.2	
COc1ccc([C@@H]2CC(=O)c3c(O)cc(O[C@@H]4O[C@H](CO)[C@@H](O)[C@H](O)[C@H]4O)cc3O2)cc1O [Hesperetin 7-O-glucoside]	3	
O=C(O[C@@H]1O[C@@H]2COC(=O)c3cc(O)c(O)c(O)c3-c3c(cc(O)c(O)c3O)C(=O)O[C@H]([C@H]1O)[C@@H]2O)c1cc(O)c(O)c(O)c1 [Corilagin]	0.2	
COc1ccc(C[C@H](N)C(=O)N[C@H]2[C@@H](O)[C@H](n3cnc4c(N(C)C)ncnc43)O[C@@H]2CO)cc1 [Puromycin (dihydrochloride)]	6.9	
COc1ccc(CC(=O)O)cc1O [Isohomovanillic acid]	0	
CC1=CC(=O)c2c(O)cccc2C1=O [Plumbagin]	-3.8	
O=C(OC[C@H]1O[C@@H](Oc2c(-c3ccc(O)c(O)c3)oc3cc(O)cc(O)c3c2=O)[C@H](O)[C@@H](O)[C@H]1O)c1cc(O)c(O)c(O)c1 [Quercetin 3-O-(6''-galloyl)-β-D-galactopyranoside]	0.1	
C/C=C(\C)C(=O)O [Tiglic acid]	0.1	
COc1cc(C[C@@H](CO[C@@H]2O[C@H](CO)[C@@H](O)[C@H](O)[C@H]2O)[C@H](CO[C@@H]2O[C@H](CO)[C@@H](O)[C@H](O)[C@H]2O)Cc2ccc(O)c(OC)c2)ccc1O [Secoisolariciresinol diglucoside]		-4.6
CC(C)=CCOc1c2occc2cc2ccc(=O)oc12 [Imperatorin]	3.3	
CC(C)C(O)C(=O)O (stereo not drawn) [2-Hydroxy-3-methylbutanoic acid]	-1.8	
NC1CCSC1=O (racemic) [DL-Homocysteine thiolactone (hydrochloride)]	-0.3	
N[C@H](CCSSCC[C@@H](N)C(=O)O)C(=O)O (racemic) [DL-Homocystine]	-2.7	
CCCCCCCCCCCCCCOC(C)=O [Tetradecyl acetate]	-0.7	
OCCCO [1,3-Propanediol]	25.1	
CN[C@@H]1[C@@H](O)[C@@H](O[C@@H]2[C@@H](O)[C@H](O[C@H]3OC(CN)=CC[C@H]3N)[C@@H](N)C[C@H]2N)OC[C@]1(C)O [Sisomicin (sulfate)]	8.9	
CCC(=O)OC(CC(=O)[O-])C[N+](C)(C)C (stereo not drawn) [Propionylcarnitine]	0	
C[C@H](CC[C@@H](O)C(C)(C)O)[C@H]1CC[C@@]2(C)[C@@H]3CC=C4[C@@H](CC[C@H](O[C@@H]5O[C@H](CO[C@@H]6O[C@H](CO)[C@@H](O)[C@H](O)[C@H]6O)[C@@H](O)[C@H](O)[C@H]5O)C4(C)C)[C@]3(C)[C@H](O)C[C@]12C [Mogroside II-A2]	20.1	
Cc1cn([C@@H]2O[C@H](CO)[C@@H](O)[C@H]2O)c(=O)[nH]c1=O [5-Methyluridine]	-0.4	
COc1cc(C(=O)OCCCCNC(=N)N)cc(OC)c1O [Leonurine (hydrochloride)]		-0.1
O=C(C[C@H]1NCCC[C@@H]1O)Cn1cnc2cc(Br)c(Cl)cc2c1=O (racemic) [Halofuginone (hydrobromide)]		-8.1
C=C1CC[C@@H]2[C@](C)(CO[C@@H]3O[C@H](CO)[C@@H](O)[C@H](O)[C@H]3O)CCC[C@@]2(C)[C@@H]1CCC1=CCOC1=O [Neoandrographolide]	0.3	

Ordered by number of heavy atoms (largest number first): part of the list above
SMILES	OC43 Inhibition rate [%]	OC43 Inhibition rate (OC43 Inhibition rate, 24 h) [%]
CC(C)=CCOc1c2occc2cc2ccc(=O)oc12 [Imperatorin]	3.3	
N[C@H](CCSSCC[C@@H](N)C(=O)O)C(=O)O (racemic) [DL-Homocystine]	-2.7	
O=C(O)c1ccncc1 [Isonicotinic acid]	-0.2	
NC1CCSC1=O (racemic) [DL-Homocysteine thiolactone (hydrochloride)]	-0.3	
